For part of these data: Negatives hold for the conditions tested. For part of these data: Results from cells or extracts need not show a direct contact.
How the values were obtained:
HER2 (ERBB2) [1] = target: HER2 (ERBB2) (UniProt P04626); experiment: flow cytometry; details: 2'-F pyrimidines; RNA transcribed from listed DNA templates; BT474 all positive, SKBR3 two populations; 2 uM, 37 C, 1 h, tRNA and sperm DNA competitor; protein on the cell surface; protein details: endogenous on BT474 / SKBR3 breast cancer cells; label: Cy5; variant of HER2 aptamer (34 nt)
Dicer (Homo sapiens) = Dicer (Homo sapiens) (UniProt Q9UPY3); experiment: enzyme reaction in vitro; details: 2'-F pyrimidines; Dicer 2 units, 4 ug RNA, 37 C 12 h; releases fragment of siRNA size; purified recombinant protein; protein details: recombinant, Genlantis; label: Cy5; variant of HER2 aptamer (34 nt)
HER2 (ERBB2) [2] = target: HER2 (ERBB2) (UniProt P04626); experiment: activity in cells; details: 2'-F pyrimidines; no cytotoxicity to BT474/SKBR3; no tumor accumulation in BT474 xenograft; protein on the cell surface; protein details: endogenous on BT474 / SKBR3 breast cancer cells; dose not given here

The chains behind the UniProt entries cited, without tags or fusion partners. Where a name states a change or a piece, a line headed by the entry shows the natural chain unless it says otherwise.
UniProt Q9UPY3: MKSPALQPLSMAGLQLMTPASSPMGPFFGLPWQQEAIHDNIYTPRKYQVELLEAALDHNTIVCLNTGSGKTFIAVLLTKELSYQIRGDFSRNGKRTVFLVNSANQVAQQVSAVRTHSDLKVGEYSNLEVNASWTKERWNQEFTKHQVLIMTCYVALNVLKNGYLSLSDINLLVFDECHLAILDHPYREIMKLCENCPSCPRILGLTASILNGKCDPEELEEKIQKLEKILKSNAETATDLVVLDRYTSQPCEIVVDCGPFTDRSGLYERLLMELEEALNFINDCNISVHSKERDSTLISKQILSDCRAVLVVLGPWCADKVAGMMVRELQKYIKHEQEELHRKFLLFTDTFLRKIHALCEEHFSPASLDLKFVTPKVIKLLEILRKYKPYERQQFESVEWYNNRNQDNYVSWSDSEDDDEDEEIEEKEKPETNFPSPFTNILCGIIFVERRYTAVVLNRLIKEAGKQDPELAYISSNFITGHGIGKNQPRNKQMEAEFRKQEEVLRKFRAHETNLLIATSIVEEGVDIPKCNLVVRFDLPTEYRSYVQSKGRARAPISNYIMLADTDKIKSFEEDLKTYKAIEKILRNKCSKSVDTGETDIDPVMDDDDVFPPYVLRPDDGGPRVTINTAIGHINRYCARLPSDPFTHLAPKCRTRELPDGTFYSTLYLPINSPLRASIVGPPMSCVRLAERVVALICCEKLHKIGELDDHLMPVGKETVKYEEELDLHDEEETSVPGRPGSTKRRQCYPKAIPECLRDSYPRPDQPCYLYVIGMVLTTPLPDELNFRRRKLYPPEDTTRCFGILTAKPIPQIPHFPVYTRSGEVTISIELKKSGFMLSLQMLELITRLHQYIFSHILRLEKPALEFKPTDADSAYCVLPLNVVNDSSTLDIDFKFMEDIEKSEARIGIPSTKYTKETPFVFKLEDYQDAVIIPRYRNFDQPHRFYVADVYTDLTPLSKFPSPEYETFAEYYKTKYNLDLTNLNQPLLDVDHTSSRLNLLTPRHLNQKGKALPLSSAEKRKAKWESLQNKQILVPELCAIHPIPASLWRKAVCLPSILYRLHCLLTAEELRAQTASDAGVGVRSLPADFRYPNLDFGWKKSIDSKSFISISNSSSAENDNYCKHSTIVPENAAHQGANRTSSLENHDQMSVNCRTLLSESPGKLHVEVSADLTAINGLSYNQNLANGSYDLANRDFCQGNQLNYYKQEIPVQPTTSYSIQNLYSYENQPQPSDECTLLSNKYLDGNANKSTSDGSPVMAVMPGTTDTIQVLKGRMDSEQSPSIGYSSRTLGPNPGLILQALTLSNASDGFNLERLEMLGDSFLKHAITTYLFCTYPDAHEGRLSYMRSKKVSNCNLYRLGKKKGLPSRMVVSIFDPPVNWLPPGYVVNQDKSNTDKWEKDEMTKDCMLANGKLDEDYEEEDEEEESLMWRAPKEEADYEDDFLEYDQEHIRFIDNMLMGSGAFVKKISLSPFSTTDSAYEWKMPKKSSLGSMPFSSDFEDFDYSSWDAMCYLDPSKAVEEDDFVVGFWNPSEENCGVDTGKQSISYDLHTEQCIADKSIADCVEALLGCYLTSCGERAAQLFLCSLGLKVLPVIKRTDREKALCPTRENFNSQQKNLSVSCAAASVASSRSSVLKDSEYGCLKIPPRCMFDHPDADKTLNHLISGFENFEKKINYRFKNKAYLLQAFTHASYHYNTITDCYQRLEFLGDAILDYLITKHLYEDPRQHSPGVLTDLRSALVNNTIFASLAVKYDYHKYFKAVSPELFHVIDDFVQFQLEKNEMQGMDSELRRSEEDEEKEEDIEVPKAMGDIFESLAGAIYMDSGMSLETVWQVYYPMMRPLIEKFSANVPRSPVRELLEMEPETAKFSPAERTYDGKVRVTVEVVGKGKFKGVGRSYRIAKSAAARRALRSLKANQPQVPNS

AGCCGCGAGGGGAGGGATAGGGTAGGGCGCGGCTAAAACCTTAGCAGTCTTATCTAATT / AGCCGCGAGGGGAGGGATAGGGTAGGGCGCGGCTAAAATTAGATAAGACTGCTAAGGCA [HEH (HER2 aptamer-EGFR siRNA-HER2 aptamer chimera)]
binding result (HER2 (ERBB2) [1]): binds

AGCCGCGAGGGGAGGGAUAGGGUAGGGCGCGGCUAAAACCUUAGCAGUCUUAUCUAAUU / GAAUUCCGCGUGUGCCAGCGAAAGUUGCGUAUGGGUCACAUCGCAGGCACAUGUCAUCUGGGCGGUCCGUUCGGGAUCCAAAAUUAGAUAAGACUGCUAAGGCA [H2EH3 (HER2 aptamer-EGFR siRNA-HER3 aptamer chimera)]
activity on this sequence (Dicer (Homo sapiens)): active

GGAUCCCGACUGGCGAGAGCCAGGUAACGAAUGGAUCC [MG aptamer (malachite green, non-targeting control)]
functional effect of the aptamer (HER2 (ERBB2) [2]): not active
